{"source": "PubChem BioAssay AID1347423", "about": "(Functional Genomics Laboratory (NCATS/FGL), 2020)", "note": "Out of some 52,000 sequences screened, about 210 (0.4%) were called active.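 The calls were made as follows: active = gene whose silencing raises cell survival under the drug, median off-target-corrected z-score across its silencing RNAs 2 or more; inactive = the rest.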 The list shows a part of the results."}
{"assay": "Resistance to Poly (ADP-Ribose) Polymerase inhibitor: Gene Identification via Genome-wide siRNA Screen", "conditions": "mouse BRCA2 R2336H ES cells, olaparib, CellTiter-Glo viability; hits give high values", "in_short": "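Mouse BRCA2 R2336H ES cells were reverse-transfected with siRNA (20 nM final), treated at 48 h with 500 nM olaparib, and read by CellTiter-Glo after 72 h. Scores: MAD-based z per siRNA, median per gene, seed off-target correction.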"}
{"sequence": "CGUCUAUCUUGGAUUACUATT against Dll1", "z-score": "inactive: -0.697"}
{"sequence": "GGAUAUUCUGGACCACUGATT against Myoz2", "z-score": "inactive: -0.97"}
{"sequence": "GCACUGAUGUAAGGUAACCTT against Prdm4", "z-score": "inactive: 0.698"}
{"sequence": "GGACGUGCUGUAUUUCAAGTT against Gal3st1", "z-score": "inactive: 0.496"}
{"sequence": "GGCUUUUCGUUCUCUGUCATT against A530054K11Rik", "z-score": "inactive: -0.808"}
{"sequence": "CGCUGCCUAAACAAGAUUATT against Cacna1f", "z-score": "inactive: 0.274"}
{"sequence": "CCAUUGGAGGAUAAGUUUUTT against Mtm1", "z-score": "inactive: -0.207"}
{"sequence": "CGACAAAAGUACUUCGAGCTT against Scrib", "z-score": "inactive: 0.719"}
{"sequence": "GGAAAAAGCUGUGAUACUUTT against Hspbap1", "z-score": "inactive: -0.24"}
{"sequence": "GGUCUAAAAUUGUGCUAAATT against LOC212390", "z-score": "inactive: -0.0777"}
{"sequence": "GGAAGUUGUUGGGAACUUCTT against Afmid", "z-score": "inactive: -0.466"}
{"sequence": "GGAAAGCAAAUCAAUGCAATT against Colm", "z-score": "inactive: 1.4"}
{"sequence": "CCCAGGAAGCCUUUGAUCUTT against Gmnn", "z-score": "inactive: -3.02"}
{"sequence": "GCCAAGGACAACUAUUUUGTT against Kcnj9", "z-score": "inactive: -0.843"}
{"sequence": "CCCUGGAUUGAGGAUCGUUTT against Mrgpra8", "z-score": "inactive: 1.3"}
{"sequence": "GCCUGUACUUCAGAAACUCTT against 6330407G11Rik", "z-score": "inactive: -0.934"}
{"sequence": "AUGGGAGAAUCAGCAGAACTT against Set", "z-score": "inactive: 1.22"}
{"sequence": "GGCUGCCUAACUGAUAACATT against Inpp4b", "z-score": "inactive: -0.557"}
{"sequence": "GGAAAUCAAGCCCUACAUCTT against Col4a2", "z-score": "inactive: -0.102"}
{"sequence": "GGAGUUCAUUCUGAAUCAGTT against Etohi2", "z-score": "inactive: -0.817"}
{"sequence": "GGGCAUCAUCCUGAAAGAGTT against Cenpb", "z-score": "inactive: -0.325"}
{"sequence": "GGUGUGCAUCAAGCGACUGTT against Cacng6", "z-score": "inactive: 1.29"}
{"sequence": "GCAUGAUUACCAGAACCACTT against Fcgr2b", "z-score": "inactive: -0.776"}
{"sequence": "GGAGUCUUACAUAGGAAAATT against Cckbr", "z-score": "inactive: 0.166"}
{"sequence": "GGCCAAACAUAAUUUUGAGTT against Cwf19l2", "z-score": "inactive: -0.822"}
{"sequence": "GGCAUCCUGAAAAACAAAGTT against Celsr1", "z-score": "inactive: 0.144"}
{"sequence": "GGCAGAAGGGUAUAACUGUTT against C530046L02Rik", "z-score": "inactive: 0.231"}
{"sequence": "CCAUGUAUGCCUCAACAUATT against Ltf", "z-score": "inactive: -0.205"}
{"sequence": "GCAGCAUCUACAUGCCGCUTT against Phf16", "z-score": "inactive: 0.61"}
{"sequence": "GAGAAGUCAAAACUGUCAUTT against Ear1", "z-score": "inactive: 0.756"}
{"sequence": "GGAUCCACUGCUUUCAAGUTT against Dibd1", "z-score": "inactive: 0.683"}
{"sequence": "GGUAGAGCAUCAGUAUCUATT against Tex16", "z-score": "inactive: -0.279"}
{"sequence": "UGUGGACAAGGACUACUAATT against Ldoc1", "z-score": "inactive: -0.996"}
{"sequence": "GGAGAAGGUCGAAAAGCCUTT against Rybp", "z-score": "inactive: -1.06"}
{"sequence": "GCUUGAUUGUCAGUUGGAATT against Tcp11", "z-score": "inactive: -0.666"}
{"sequence": "GCUUAUUGAACUAUUGUUGTT against Trpc4", "z-score": "inactive: 1.27"}
{"sequence": "GUGACAAUGAAAAAUGUGUTT against 1810046I24Rik", "z-score": "inactive: -0.177"}
{"sequence": "GCAAGUGUAGAUAAAGUAUTT against Msi2h", "z-score": "inactive: 0.586"}
{"sequence": "GGUUUGAUCUCAUUUUCCUTT against Mcm4", "z-score": "inactive: -2.16"}
{"sequence": "GCAAGCUAUGGUACGCAGATT against Dapk2", "z-score": "inactive: 2.68"}
{"sequence": "GCAUUUUGCCCAAUCAAGATT against BC027072", "z-score": "inactive: 0.74"}
{"sequence": "GCUUUUGGACUGAAUCUCATT against 2210016L21Rik", "z-score": "inactive: 1.16"}
{"sequence": "GGAGCAGAGGCCAUGAGAATT against Pik3r4", "z-score": "inactive: -0.515"}
{"sequence": "GGACAUAGACUUAAGUAGUTT against Casp8ap2", "z-score": "inactive: -0.431"}
{"sequence": "UGAGGAGACUAUUUAUUAGTT against Olfr1318", "z-score": "inactive: -0.0683"}
{"sequence": "GGUAGAAUGUGUGAUACCCTT against Lzf", "z-score": "inactive: 0.657"}
{"sequence": "GGAUCCAACAAAUGUUAUUTT against D5Bwg0834e", "z-score": "inactive: 0.921"}
{"sequence": "GGUCAAUGACAUCGUCAGUTT against D430039N05Rik", "z-score": "inactive: 0.611"}
{"sequence": "GGCUCGGCUUUUGACACAUTT against Ormdl2", "z-score": "inactive: -0.749"}
{"sequence": "GCUUACGUUUCAUUCUCCCTT against 6720463M24Rik", "z-score": "inactive: 1.66"}
{"sequence": "GGUGUUUGCCCUUCCGUGATT against Gpr30", "z-score": "inactive: -0.963"}
{"sequence": "CCGUUAAGUAGCUGGAAGATT against 4930522D07Rik", "z-score": "inactive: 0.187"}
{"sequence": "GCAGGACAAGGACAACACUTT against Dyrk2", "z-score": "inactive: 2.56"}
{"sequence": "CCAUUUAAUCUGGCAGAGCTT against Kif11", "z-score": "inactive: -0.191"}
{"sequence": "GGUAGUGGCUUGAACAGGUTT against V1ri4", "z-score": "inactive: 0.933"}
{"sequence": "GGCCAUGCUACAAGUUCAATT against Trem1", "z-score": "inactive: 0.145"}
{"sequence": "GGGUUUUGGAGACAGUAUUTT against 2700081O15Rik", "z-score": "inactive: -1.04"}
{"sequence": "GGAGGAACAGCUCAGAUGUTT against Olfr524", "z-score": "inactive: 0.557"}
{"sequence": "GCGAACUCGGGAAACAACUTT against Rnf4", "z-score": "inactive: -1.48"}
{"sequence": "CGACUGGGACAUUAAAACCTT against 1810008O21Rik", "z-score": "inactive: 1.21"}
{"sequence": "CCGGAUUAAUGAUGCAAUGTT against 2310005O14Rik", "z-score": "inactive: 0.755"}
{"sequence": "GGUUCCACUAAUCUUUUUATT against Mark3", "z-score": "inactive: 0.417"}
{"sequence": "CCCUUUAUAUCGAUUUCGGTT against Spata2", "z-score": "inactive: 0.149"}
{"sequence": "GCCUAACUAGCAAUAAAAGTT against 2810403A07Rik", "z-score": "inactive: 0.696"}
{"sequence": "CCGGGUAGCUACUGUUAUGTT against Olfr365", "z-score": "inactive: 1.03"}
{"sequence": "GGCUUUUGAAUACGAGUUUTT against BC014795", "z-score": "inactive: 0.0449"}
